## Library screen at single concentrations

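Growth of Mycobacterium tuberculosis over 3 days (7H9 medium with glucose and tyloxapol); the read-out is not stated. Tested at 500 µM. Higher reads as more growth inhibition (inferred: compounds with an IC50 in retests scored well above the rest). About 18,000 compounds were tested under these conditions; 7.9% (about 1,400) showed 50% or more at least once.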

Values are the deposited “Percent Effect”, in %. The controls that fix the scale are not given in the record; negative values are as filed. Compounds were drawn at random from those tested, without regard to their results.

compound,effect
COc1cccc(CNC(=O)Cn2cnc(C#N)n2)c1,16.43%
CN(C)c1cc(CNC(=O)c2ccc(Br)o2)ccn1,58.36%
Cc1[nH]ncc1CNCC(O)CN1CCCCC1 (stereo not shown),-12.03%
CCCSCC(=O)NC(C)Cn1cncn1 (stereo not shown),8.158%
CCOc1cc(C)ccc1CN,-1.524%
CN(C)C(CNC(=O)c1ccncc1)c1ccco1 (stereo not shown),20.11%
Cc1cc(CO)ccc1N1CCOCC1,13.39%
CC(NC(=O)c1cc(Cl)sc1Cl)C(=O)N1CCOCC1 (stereo not shown),27.62%
CC(N)c1noc(-c2ccc(Cl)cc2)n1 (stereo not shown),75.25%
Cc1cc(C(=O)N(C)CC(=O)NC2CC2)c(C)o1,-3.909%
Cc1ccc(F)c(NS(C)(=O)=O)c1,7.991%
Cc1cnc(NC(=O)CCn2cncn2)s1,-4.682%
CS(=O)(=O)NC1CNC1,-13.73%
OC(COc1ccc2c(c1)OCO2)CN1CCCCC1 (stereo not shown),15.79%
Cc1cnc(C(=O)N(C)c2ncccc2Br)cn1,10.1%
CCc1ncc(CNC)s1,-0.04866%
CCC(CO)NC(=O)c1ccccc1OC(F)(F)F (stereo not shown),35.86%
O=S(=O)(CC1CCCCC1)N[C@H]1CCCNC1,20.29%
NC(=O)c1ccc(-c2ccc(F)cc2)o1,24.33%
CN(C)c1ncc(CN(CCO)Cc2nccs2)cn1,43.52%
CC(C)Cc1cc(C(=O)N2CC[C@H](CO)[C@H](O)C2)on1,9.002%
CN(C)S(=O)(=O)c1ccc(O)cc1,16.6%
Cn1c(CN)nc2ccc(F)cc21,25.34%
CC(C)c1cccc(Cn2cc(F)ccc2=O)n1,4.435%
CN(CC(=O)NC(C)(C)C)C(=O)c1cncc(Br)c1,6.032%
COCC(=O)N(C)C(C)Cc1ccc(OC)cc1 (stereo not shown),7.396%
CC(O)CN1CCN(C)CC1 (stereo not shown),1.698%
CCCn1nccc1C(=O)N1CCOC[C@@H]1CC,12.3%
Oc1ccc2c(c1)COC2,8.359%
CC(CO)SCc1cc(=O)n2ccccc2n1 (stereo not shown),5.186%
Cc1cc(Br)cc(C(=O)N2CCOCC2C(N)=O)c1 (stereo not shown),16.99%
Cc1ccc(=O)n(Cc2nc(C3CCOC3)no2)n1 (stereo not shown),5.89%
CCOc1ccccc1N(C)C(=O)c1ccncc1F,21.2%
O=C(NCCO)c1ccc(-c2ccccc2)cc1,10.65%
CC(C)N(C)S(=O)(=O)N(C)Cc1ccc(Br)o1,72.58%
c1coc(C2CNCCO2)c1 (stereo not shown),3.146%
CNCC1CCN(c2ccncc2)CC1,-2.114%
O=C(CN1CCn2ccnc2C1)Nc1ccc(Br)cn1,29.95%
O=C(Nc1cn[nH]c1)C1CCNC1 (stereo not shown),1.562%
Cc1ccc(F)cc1C(=O)N1CCSC1,18.37%
COc1ccccc1C(C)NC(=O)Cn1cc(C)cn1 (stereo not shown),51.09%
CC(C)(CNC(=O)CC1=CCCCC1)S(C)(=O)=O,20.39%
c1nc2c([nH]1)C1(CCC1)NCC2,6.486%
O=C(COC(=O)c1cccs1)NCc1ccco1,74.42%
COc1cccc(OCC(O)CN2CCN(C)CC2)c1 (stereo not shown),-6.157%
COCCCNC(=O)CC1Nc2ccccc2NC1=O (stereo not shown),23.1%
NCC(CO)Cc1ccc(Br)cc1 (stereo not shown),49.76%
CC(C)CC(C)S(N)(=O)=O (stereo not shown),-1.377%
CCN(C)S(=O)(=O)N(CC(C)O)C1CCCCC1 (stereo not shown),7.82%
CN(CCN)CC(=O)N(C)C,-7.199%
CC(=O)N1CCN(CCNC(=O)Nc2nncs2)CC1,-1.51%
CC(CNC(=O)c1cncc(Br)c1)N1CCCC1 (stereo not shown),26.41%

Repeated from the top, 4 entries:

compound,effect
COc1cccc(CNC(=O)Cn2cnc(C#N)n2)c1,16.43%
CN(C)c1cc(CNC(=O)c2ccc(Br)o2)ccn1,58.36%
Cc1[nH]ncc1CNCC(O)CN1CCCCC1 (stereo not shown),-12.03%
CCCSCC(=O)NC(C)Cn1cncn1 (stereo not shown),8.158%

The values are deposited in ChEMBL (CHEMBL3988442, “University of Dundee, Small-Polar-MMV Screening Library” (2021)).